# PubChem BioAssay AID504467 (National Center for Advancing Translational Sciences (NCATS), 2011)
# Out of some 330,000 compounds screened, about 7,700 (2.3%) were called active. The inconclusive results got no clear call from the source; some entries with a clear call stand among them for comparison. Calls come from the whole dose curve; as a rule, active = well fitted inhibition curve with a large enough effect; inconclusive = small, poorly fitted or top-dose-only effect, or effect the other way; inactive = flat fitted curve, though single readings scatter. A potency beside an inconclusive call is a rough fit, not a confirmed value.
# Experiment: qHTS screen for small molecules that inhibit ELG1-dependent DNA repair in human embryonic kidney (HEK293T) cells expressing luciferase-tagged ELG1; note: nearly all actives have a fitted effect of over 55% in size
# Details: HEK293T ELG1-luciferase reporter, luminescence, 16 h, DNA damage induced by 5-fluorouridine; activity change, negative = inhibition: at 46.1 µM (top of the series)
# In short: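 Quantitative HTS, concentration-response format. 2,000 cells/well co-treated with 5-fluorouridine and compound, 16 hr in 5% CO2 at 37 °C; ONE-Glo luminescence read after 30 min.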
# % is set by controls: 0 for no effect and ±100 for the full control effect; potency is the fitted concentration of half-maximal effect.
SMILES,Potency,"activity change, negative = inhibition"
CCOC(=O)N1CCC(NC(=O)C2CCN(S(=O)(=O)c3cccc4cccnc34)CC2)CC1,"inconclusive: 18.4 µM [inhibitor, single point]",
O=C(CSc1ccccc1)N1CCN(c2ccccc2)CC1,"inconclusive: 20.6 µM [activator, partial curve]",
COc1ccc(S(=O)(=O)Oc2cccc(/C=N/N=C3/NC(=O)C(CC(=O)O)S3)c2)cc1 (configuration not stated),"inconclusive: 32.6 µM [activator, partial curve, poor fit]",
Cc1ccc(Nc2cccccc2=O)cc1,"inconclusive: 6.51 µM [activator, partial curve]",
O=C(Nc1nnc(-c2ccc(F)cc2)s1)c1ccco1,"inconclusive: 9.2 µM [activator, partial curve]",
COc1c(C(C)C)oc2cc3oc(=O)ccc3cc12,"inconclusive: 29.1 µM [activator, single point]",
Cc1cc(/C=N/NC(N)=S)c(C)n1-c1ccc(Cl)c(Cl)c1,"inconclusive: 29.1 µM [inhibitor, single point]",
COc1ccc(C(=O)c2ccc(N3CCOCC3)cc2)c(OC)c1,inactive,
COc1ccc2nc(NC3=NCCC3)sc2c1,"inconclusive: 31.6 µM [activator, single point]",
Cc1c(C(=O)Nc2cccc([N+](=O)[O-])c2)cnn1-c1ccccc1,"inconclusive: 3.66 µM [activator, single point]",
O=C(N/N=C\c1cccc(OC(=O)c2ccco2)c1)c1ccc2c(c1)OCO2,"inconclusive: 6.51 µM [activator, partial curve]",
CC(C)(C)C1C/C(=C/c2ccccn2)C(=O)/C(=C/c2ccccn2)C1 (configuration not stated),"inconclusive: 6.51 µM [inhibitor, single point]",
Cc1cc(Cl)ccc1NC(=O)C1COc2ccccc2O1 (configuration not stated),"inconclusive: 20.6 µM [activator, partial curve]",
Cc1ccc(-n2nc3c(=O)n(CC(=O)NC(C)CCc4ccccc4)nc(C)c3c2C)cc1 (configuration not stated),active: 0.651 µM,
O=C(NCc1ccccc1CN1CCCC1)c1cc2cc(Cl)ccc2o1,inactive,
Clc1cccc(Cl)c1CON/C=N/c1ncnc2sccc12,"inconclusive: 16.4 µM [inhibitor, single point]",
O=C(Nc1cc(C(F)(F)F)ccc1Cl)C(Sc1n[nH]c(=O)[nH]c1=O)c1ccccc1 (configuration not stated),,inconclusive: 56.5% [activator]
O=c1cc(CN2CCN(Cc3ccccc3)CC2)c2ccc(O)cc2o1,inactive,
CCN(CC)CCn1c(SCC(=O)Nc2cccc(OC)c2)nc2c(sc3ccccc32)c1=O,"inconclusive: 23.1 µM [inhibitor, single point]",
Cc1cccc(CSc2nc3ccncc3n2CC(=O)Nc2ccc(C)c(C)c2)c1,"inconclusive: 32.6 µM [activator, partial curve, poor fit]",
COC(=O)Cc1ccc2c3ccccc3n(C)c2c1,"inconclusive: 25.9 µM [activator, single point]",
CC(=O)N1CCN(S(=O)(=O)c2cccc(C(=O)Nc3ccc(C)cn3)c2)CC1,"inconclusive: 20.6 µM [activator, single point]",
C=CCc1ccccc1OCC(O)CN1CCN(CCN2C(=O)c3cccc4cccc(c34)C2=O)CC1 (configuration not stated),active: 20.6 µM,

# As a short view, part of the list above:
SMILES,Potency,"activity change, negative = inhibition"
CCOC(=O)N1CCC(NC(=O)C2CCN(S(=O)(=O)c3cccc4cccnc34)CC2)CC1,"inconclusive: 18.4 µM [inhibitor, single point]",
O=C(CSc1ccccc1)N1CCN(c2ccccc2)CC1,"inconclusive: 20.6 µM [activator, partial curve]",
COc1ccc(S(=O)(=O)Oc2cccc(/C=N/N=C3/NC(=O)C(CC(=O)O)S3)c2)cc1 (configuration not stated),"inconclusive: 32.6 µM [activator, partial curve, poor fit]",

# Further structures:

SMILES,Potency,"activity change, negative = inhibition"
Cc1nn(C(=O)CN2C(=O)c3ccccc3C2=O)c(C)c1Br,"inconclusive: 35.5 µM [activator, single point]",
Cc1ccc(Cl)cc1NC(=O)COc1ccccc1,"inconclusive: 32.6 µM [activator, partial curve, poor fit]",
Cc1ccc(NC(=O)C(=O)NCCCN2CCCC2=O)c(C)c1,"inconclusive: 20.6 µM [activator, partial curve]",
COc1ccc(C(Nc2cc(C)ccn2)c2ccc3ccc(C)nc3c2O)cc1 (configuration not stated),"inconclusive: 29.1 µM [activator, single point]",
CC(C)(C)C(=O)Nc1ccc(-c2cnco2)cc1,"inconclusive: 16.4 µM [activator, partial curve]",
Cc1ccc(C(=O)Nc2ccccc2C(=O)NC(Cc2ccccc2)C(=O)O)cc1 (configuration not stated),"inconclusive: 29.1 µM [activator, single point]",
Cc1ccc(NC(=O)C(=O)NCC2CCCO2)cc1C (configuration not stated),"inconclusive: 10.3 µM [activator, partial curve]",
CC(=O)Nc1ccccc1C(=O)C(=O)Nc1ccc(Cl)cc1,"inconclusive: 16.4 µM [activator, partial curve]",
CC(C)N(C(=O)[C@H]1C[C@H](CC(=O)NCc2cccc(C(F)(F)F)c2)C(=O)N2CCc3c([nH]c4ccc(Cl)cc34)[C@]12C)C(C)C,"inconclusive: 23.1 µM [inhibitor, single point]",
CCOC(=O)C1=C(O)/C(=C/c2ccc(CNC(=O)C(=O)Nc3ccc(C)cc3)o2)N=C1C,"inconclusive: 18.4 µM [activator, single point]",
CCc1nc2ccc(C(=O)N3CCN(c4ccc(Cl)cc4)CC3)cc2nc1CC,"inconclusive: 6.51 µM [inhibitor, partial curve]",
Cc1ccc2nc(SCc3ccc([N+](=O)[O-])cc3)[nH]c2c1,"inconclusive: 29.1 µM [activator, single point]",
O=C(CSc1c2c(nc3cc(Cl)ccc13)CCCC2)NCc1ccco1,inactive,
CN(C(=O)c1ccccc1C(=O)OCC(=O)Nc1ccccc1)c1ccccc1,"inconclusive: 25.9 µM [activator, partial curve, poor fit]",
Nc1ccccc1SC1CC(=O)N(c2ccc(Cl)c(Cl)c2)C1=O (configuration not stated),inactive,
CCCn1nnnc1SCC(=O)c1ccc(NC(C)=O)cc1,inactive,
COc1ccc(NC(=S)N(CCc2c(C)[nH]c3ccccc23)Cc2cccnc2)cc1,inactive,
O=C(O)CCc1ccccc1OC(=O)c1ccccc1,"inconclusive: 29.1 µM [activator, partial curve, poor fit]",
c1ccc(-c2noc(CN3CCN(c4ccccc4)CC3)n2)cc1,inactive,
COC(=O)c1sc(S(=O)(=O)NC(Cc2ccccc2)C(=O)O)c(C(=O)OC)c1C (configuration not stated),inactive,
Cc1ccc(CN2CC(C(=O)Nc3ccc4c(C)cc(=O)oc4c3)CC2=O)cc1 (configuration not stated),"inconclusive: 23.1 µM [inhibitor, single point]",
Cc1cc(NC(=O)C2CCCC2)nc2c1c(=O)oc1ccccc12,active: 20.6 µM,
COc1ccc(CNC(=O)Cn2c(=O)oc3cc(S(=O)(=O)N4CCCC4)ccc32)cc1,inactive,

SMILES,Potency,"activity change, negative = inhibition"
CC(=O)c1cnc2cc(-c3cccc(Br)c3)nn2c1C,"inconclusive: 8.2 µM [activator, partial curve]",
Cc1ccccc1N=C1SC(CC(=O)Nc2ccc3ccccc3c2)C(=O)N1Cc1ccccn1 (configuration not stated),"inconclusive: 20.6 µM [inhibitor, partial curve]",
O=C(NNC(=S)NC(=O)c1sc2ccccc2c1Cl)c1ccc(Cl)cc1,"inconclusive: 23.1 µM [activator, single point]",
COc1cc(-c2c(NC(=O)c3ccco3)oc3c(C)cccc3c2=O)cc(OC)c1OC,inactive,
COc1ccc(-c2cc3ccccc3n2CC(O)CN2CCC(C)CC2)cc1 (configuration not stated),"inconclusive: 18.3 µM [activator, partial curve, poor fit]",
COCCCn1c(SCC(=O)NC2CCCC2)nnc1-c1ccncc1,inactive,
COc1ccc(C)cc1-n1nnnc1SCc1csc(C)n1,inactive,
Oc1ccccc1C=NC1=NN(c2cccc(C(F)(F)F)c2)CC1,inactive,
O=C1c2oc3ccccc3c(=O)c2C(c2cccc(O)c2)N1c1ccccn1 (configuration not stated),"inconclusive: 23.1 µM [inhibitor, partial curve]",
Cc1ccc(-c2csc(N/N=C/c3ccco3)n2)cc1,"inconclusive: 18.4 µM [activator, partial curve]",
COc1cc(Nc2ccccn2)cc(C(=O)Nc2cccc(C(F)(F)F)c2)c1,"inconclusive: 25.9 µM [inhibitor, single point]",
Brc1c(CSc2nc3ccccc3s2)nc2ncccn12,"inconclusive: 3.66 µM [activator, full curve]",
Cc1ccccc1C(=O)NCCOc1ccccc1Cl,"inconclusive: 5.01 µM [activator, full curve]",
Cc1ccc2oc(-c3cccc(NC(=O)Cn4cnc5c(=O)n(C)c(=O)n(C)c54)c3)nc2c1,"inconclusive: 10.3 µM [activator, partial curve]",
Cc1ccc(C)c(C(=O)Nc2cc(C)nn2-c2nc(C)cc(C)n2)c1,"inconclusive: 10.3 µM [inhibitor, partial curve, poor fit]",
N/C(=N\OC(=O)c1cccs1)c1cccnc1,"inconclusive: 18.3 µM [activator, single point]",
Cc1cc(C)n(C(=O)c2cc3sccc3[nH]2)n1,"inconclusive: 20.6 µM [activator, single point]",
COc1ccccc1NC(=S)N1CCN(C(c2ccccc2)c2ccccc2)CC1,"inconclusive: 18.3 µM [inhibitor, single point]",
O=C(OCC(=O)N1CCc2ccccc2C1)c1ccc(Cl)c([N+](=O)[O-])c1,"inconclusive: 32.6 µM [activator, partial curve, poor fit]",
CCOc1cc(CNCc2ccccc2)ccc1OCc1ccc(Cl)cc1,"inconclusive: 16.4 µM [inhibitor, single point]",
N#Cc1cccc(-n2c(-c3ccccc3)nnc2-c2ccccc2)c1C#N,"inconclusive: 29.1 µM [inhibitor, single point]",
